B1: Ras-like protein A (protein, UniProt P48555 1-201)
chain: MSKKPTAGPALHKVIMVGSGGVGKSALTLQFMYDEFVEDYEPTKADSYRKKVVLDGEEVQIDILDTAGQEDYAAIRDNYFRSGEGFLCVFSITDDESFQATQEFREQILRVKNDESIPFLLVGNKCDLNDKRKVPLSECQLRAQQWAVPYVETSAKTRENVDKVFFDLMREIRSRKTEDSKATSGRAKDRCKKRRLKCTLL
B2: Twins (protein, UniProt P36872 1-499)
chain: MGRWGRQSPVLEPPDPQMQTTPPPPTLPPRTFMRQSSITKIGNMLNTAININGAKKPASNGEASWCFSQIKGALDDDVTDADIISCVEFNHDGELLATGDKGGRVVIFQRDPASKAANPRRGEYNVYSTFQSHEPEFDYLKSLEIEEKINKIRWLQQKNPVHFLLSTNDKTVKLWKVSERDKSFGGYNTKEENGLIRDPQNVTALRVPSVKQIPLLVEASPRRTFANAHTYHINSISVNSDQETFLSADDLRINLWHLEVVNQSYNIVDIKPTNMEELTEVITAAEFHPTECNVFVYSSSKGTIRLCDMRSAALCDRHSKQFEEPENPTNRSFFSEIISSISDVKLSNSGRYMISRDYLSIKVWDLHMETKPIETYPVHEYLRAKLCSLYENDCIFDKFECCWNGKDSSIMTGSYNNFFRVFDRNSKKDVTLEASRDIIKPKTVLKPRKVCTGGKRKKDEISVDCLDFNKKILHTAWHPEENIIAVAATNNLFIFQDKF
B3: Proteasome α6 subunit (protein, UniProt P12881 1-279)
chain: MFRNQYDSDVTVWSPQGRLHQVEYAMEAVKLGTATVGLKNKDYAVLVALCKPTSELSDTQRKIIPIDDHLGISIAGLTADARVLSRYLRSECLNYKHSYDTTYPVSRLITNLGNKMQTTTQRYDRRPYGVGLLVAGYDERGPHIYQVTPSATFFNCKANSIGSRSQSARTYLEKNLNKFLDSSKDEIIRHGIRAILGTLPTDEQGKDAGQYDITVAIVGKDQPFTILSNKDSAKHVAIAKENDNDTPRNDDDDDRPSPPEEPAAGPRDPEVLVATEQRP
B4: ced-6 (protein, UniProt Q7JUY7 1-517)
chain: MPYQPANSGGTSGGSKAAAKMAQLKFWNKQNSSKQQQQDKDKDAADGGNNTSGGGTGSNSNGDAKSEAKNGKRNWLHTPEQLISGHAVYLVKFFGNLSVDQPKGIEVVKEAIRKLQFAQQMKKAETGTQEKFKKLEITISIKGVAIQEPRTHKILHQFPLYNISYCADEKGVKKFFSFIAKTVKTQDGSDPTSNGHANGNGDGSAKVEESHECFVFISNKLASDITLTIGQAFDLAYRKYMDSTEKTNLSKAQQQINHLQQTVNVYKERLREVSAKLPKAELDALLFNLGIKDILEAPTTEPQNGIEVASEALSNGKLDDDKLLIDTNSTTASTHSASPSSFLPIVPPRNNLSSQISIGGKSNSQKMDELLLNSDSDSDFDPRADETQEIGGTGRSAISNMFGFEPANSFGQHLFSNNNDHKLQNNNSSLLITSNNNSINSSGFSSELNITPPLLAPPPKIAAPRRLNSVTTGNGLNGNTDLFGSDPFELNNGPNIFKQNQLNLDDFSLESLDPLRK

No constants are given. Whether binding was seen depends on the method and setting. In cells and extracts the contact can be indirect. These calls come from enrichment with a bait or labelling near it, and not all partners need be listed.

The target of this assay is Eye transformer with a V5 tag (ET-V5) (Drosophila melanogaster). In words: affinity purification with mass spectrometry; Anti-V5 Agarose Affinity Gel incubated overnight at 4°C with lysates of S2 cells stably expressing ET-V5, with or without Upd1-myc; washed 6 x 10 min with PBS with protease and phosphatase inhibitors; SDS-PAGE, silver stain, in-gel trypsin digestion, LC-MS/MS; proteins also found in the negative controls (untreated S2 cells, empty pMT vector) excluded.
For the molecule B1, the binding entry is “binds”.
Consider B2, for which the binding result is reported as “binds”.
B3: the binding entry is recorded as “binds”.
For B4 the value was “binds”.
